Patent publication US12275685B2, “Oligo-benzamide analogs and their use in cancer treatment” (Board of Regents, The University of Texas System, priority 2018, dated 2025)

How the values were obtained:
[1] = test system: SKOV3 cells; test: RNA-seq after ERX-208; format: cell-based
[2] = test system: MCF-7 MT-ERα Y537S cells; test: RNA-sequencing and GO analyses after TX-542; format: cell-based; conditions: 200 nM, 24 h

| SMILES | number of down regulated genes [1] [genes] | number of upregulated genes [1] [genes] | number of genes down regulated ([2]; log 2FC<−0.5, p<0.01) [genes] | number of genes upregulated ([2]; log 2FC>0.5) [genes] |
| --- | --- | --- | --- | --- |
| CC(C)COc1cc(C(=O)Nc2ccc(C(=O)N[C@H]3CC[C@H](C(=O)Nc4cnc5ccccc5c4)CC3)cc2OCC(C)C)ccc1NC(=O)c1ccc([N+](=O)[O-])c(OCCO)c1 [TK208] | 1018 | 1183 | – | – |
| NCCC(=O)Nc1ccc(C(=O)Nc2ccc(C(=O)NCCc3ccc4ccccc4c3)cc2OCC2CCCCC2)cc1OCCO [TX-542] | – | – | 1029 | 1189 |
